In PMC11919215:
These are yes or no findings as the source states them, for the method shown. Some results given as binding are weak or reduced against the parent protein; the word gives no strength.

Chains of the proteins cited; added tags and fusions are not shown. Residues count along the entry.
UniProt P12111, residues 26-3177: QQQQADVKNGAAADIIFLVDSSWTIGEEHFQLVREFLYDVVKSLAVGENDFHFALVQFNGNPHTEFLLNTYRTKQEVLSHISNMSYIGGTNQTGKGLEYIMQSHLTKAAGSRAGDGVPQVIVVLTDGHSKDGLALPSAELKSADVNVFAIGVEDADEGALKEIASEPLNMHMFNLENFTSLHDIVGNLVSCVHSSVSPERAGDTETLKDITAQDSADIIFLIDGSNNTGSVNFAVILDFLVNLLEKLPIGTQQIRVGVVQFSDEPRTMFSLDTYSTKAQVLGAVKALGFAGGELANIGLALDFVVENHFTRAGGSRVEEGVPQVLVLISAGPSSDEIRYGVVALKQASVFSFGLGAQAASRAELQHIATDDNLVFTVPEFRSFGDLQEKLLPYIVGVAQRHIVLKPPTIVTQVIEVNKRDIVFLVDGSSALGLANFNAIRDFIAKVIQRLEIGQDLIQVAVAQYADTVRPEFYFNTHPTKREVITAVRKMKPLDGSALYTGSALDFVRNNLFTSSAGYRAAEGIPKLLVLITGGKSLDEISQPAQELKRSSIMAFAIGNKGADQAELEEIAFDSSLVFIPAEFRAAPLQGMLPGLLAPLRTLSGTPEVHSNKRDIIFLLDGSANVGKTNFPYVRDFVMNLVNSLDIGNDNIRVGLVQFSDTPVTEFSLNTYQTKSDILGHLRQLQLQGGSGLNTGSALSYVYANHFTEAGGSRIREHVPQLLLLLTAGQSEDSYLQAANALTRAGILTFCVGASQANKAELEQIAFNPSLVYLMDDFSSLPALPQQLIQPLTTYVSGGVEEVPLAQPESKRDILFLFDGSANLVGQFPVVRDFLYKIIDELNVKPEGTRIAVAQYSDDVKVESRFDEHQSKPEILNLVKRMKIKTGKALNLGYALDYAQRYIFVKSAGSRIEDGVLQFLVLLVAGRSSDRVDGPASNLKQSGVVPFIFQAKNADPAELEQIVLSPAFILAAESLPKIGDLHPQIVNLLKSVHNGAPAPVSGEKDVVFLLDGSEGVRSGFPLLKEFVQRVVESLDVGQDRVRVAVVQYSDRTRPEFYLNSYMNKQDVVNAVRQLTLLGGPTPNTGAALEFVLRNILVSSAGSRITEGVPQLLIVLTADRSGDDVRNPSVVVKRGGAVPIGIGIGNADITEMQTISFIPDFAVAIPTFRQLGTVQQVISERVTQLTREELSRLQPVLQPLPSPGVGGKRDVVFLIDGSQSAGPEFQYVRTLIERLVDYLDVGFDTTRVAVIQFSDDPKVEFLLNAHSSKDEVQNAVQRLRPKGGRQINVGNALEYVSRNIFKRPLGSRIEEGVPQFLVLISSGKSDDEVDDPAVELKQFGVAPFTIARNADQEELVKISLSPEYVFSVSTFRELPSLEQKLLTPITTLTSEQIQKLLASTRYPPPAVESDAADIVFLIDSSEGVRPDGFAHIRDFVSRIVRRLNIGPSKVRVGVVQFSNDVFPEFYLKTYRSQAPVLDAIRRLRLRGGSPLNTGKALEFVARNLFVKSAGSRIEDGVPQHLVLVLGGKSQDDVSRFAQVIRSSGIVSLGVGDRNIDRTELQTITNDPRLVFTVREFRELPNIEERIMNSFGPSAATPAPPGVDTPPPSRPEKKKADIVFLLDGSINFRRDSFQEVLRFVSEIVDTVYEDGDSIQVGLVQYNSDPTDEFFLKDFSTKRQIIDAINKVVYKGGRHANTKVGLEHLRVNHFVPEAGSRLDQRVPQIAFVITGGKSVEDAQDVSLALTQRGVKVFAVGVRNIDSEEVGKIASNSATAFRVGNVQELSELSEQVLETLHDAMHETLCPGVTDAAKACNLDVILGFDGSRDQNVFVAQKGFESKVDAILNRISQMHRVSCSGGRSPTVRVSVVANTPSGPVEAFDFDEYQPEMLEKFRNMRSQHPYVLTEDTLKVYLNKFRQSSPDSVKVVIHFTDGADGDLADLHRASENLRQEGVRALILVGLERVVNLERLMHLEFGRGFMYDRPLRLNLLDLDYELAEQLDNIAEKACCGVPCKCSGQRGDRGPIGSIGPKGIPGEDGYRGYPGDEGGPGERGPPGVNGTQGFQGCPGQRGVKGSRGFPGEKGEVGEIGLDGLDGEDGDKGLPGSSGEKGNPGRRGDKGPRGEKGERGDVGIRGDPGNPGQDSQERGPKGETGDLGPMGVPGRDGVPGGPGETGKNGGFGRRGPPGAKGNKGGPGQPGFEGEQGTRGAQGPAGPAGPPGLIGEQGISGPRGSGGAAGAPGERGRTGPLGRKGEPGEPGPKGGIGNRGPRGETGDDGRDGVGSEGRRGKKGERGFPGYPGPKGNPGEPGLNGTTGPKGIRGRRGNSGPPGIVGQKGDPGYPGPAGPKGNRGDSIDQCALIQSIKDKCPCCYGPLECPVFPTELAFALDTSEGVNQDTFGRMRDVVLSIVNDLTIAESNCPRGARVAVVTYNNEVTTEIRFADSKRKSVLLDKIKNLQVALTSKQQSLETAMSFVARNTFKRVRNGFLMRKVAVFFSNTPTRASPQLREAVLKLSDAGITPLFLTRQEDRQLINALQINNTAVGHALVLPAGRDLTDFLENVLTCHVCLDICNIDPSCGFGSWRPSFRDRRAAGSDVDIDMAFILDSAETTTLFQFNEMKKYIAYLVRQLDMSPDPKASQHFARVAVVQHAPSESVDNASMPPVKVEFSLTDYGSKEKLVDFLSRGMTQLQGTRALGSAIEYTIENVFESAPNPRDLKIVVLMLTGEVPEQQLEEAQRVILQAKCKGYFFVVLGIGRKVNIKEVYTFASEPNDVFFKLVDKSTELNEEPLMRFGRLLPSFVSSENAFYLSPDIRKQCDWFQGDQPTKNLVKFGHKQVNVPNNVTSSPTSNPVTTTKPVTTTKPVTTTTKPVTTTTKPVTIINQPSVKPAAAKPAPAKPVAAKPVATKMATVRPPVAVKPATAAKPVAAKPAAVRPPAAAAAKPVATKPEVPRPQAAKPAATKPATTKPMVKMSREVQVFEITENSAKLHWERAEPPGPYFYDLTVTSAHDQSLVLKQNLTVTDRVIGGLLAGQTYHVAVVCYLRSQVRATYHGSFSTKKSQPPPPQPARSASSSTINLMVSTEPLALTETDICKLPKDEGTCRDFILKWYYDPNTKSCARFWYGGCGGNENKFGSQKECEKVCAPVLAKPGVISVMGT
UniProt P12109, residues 20-1028: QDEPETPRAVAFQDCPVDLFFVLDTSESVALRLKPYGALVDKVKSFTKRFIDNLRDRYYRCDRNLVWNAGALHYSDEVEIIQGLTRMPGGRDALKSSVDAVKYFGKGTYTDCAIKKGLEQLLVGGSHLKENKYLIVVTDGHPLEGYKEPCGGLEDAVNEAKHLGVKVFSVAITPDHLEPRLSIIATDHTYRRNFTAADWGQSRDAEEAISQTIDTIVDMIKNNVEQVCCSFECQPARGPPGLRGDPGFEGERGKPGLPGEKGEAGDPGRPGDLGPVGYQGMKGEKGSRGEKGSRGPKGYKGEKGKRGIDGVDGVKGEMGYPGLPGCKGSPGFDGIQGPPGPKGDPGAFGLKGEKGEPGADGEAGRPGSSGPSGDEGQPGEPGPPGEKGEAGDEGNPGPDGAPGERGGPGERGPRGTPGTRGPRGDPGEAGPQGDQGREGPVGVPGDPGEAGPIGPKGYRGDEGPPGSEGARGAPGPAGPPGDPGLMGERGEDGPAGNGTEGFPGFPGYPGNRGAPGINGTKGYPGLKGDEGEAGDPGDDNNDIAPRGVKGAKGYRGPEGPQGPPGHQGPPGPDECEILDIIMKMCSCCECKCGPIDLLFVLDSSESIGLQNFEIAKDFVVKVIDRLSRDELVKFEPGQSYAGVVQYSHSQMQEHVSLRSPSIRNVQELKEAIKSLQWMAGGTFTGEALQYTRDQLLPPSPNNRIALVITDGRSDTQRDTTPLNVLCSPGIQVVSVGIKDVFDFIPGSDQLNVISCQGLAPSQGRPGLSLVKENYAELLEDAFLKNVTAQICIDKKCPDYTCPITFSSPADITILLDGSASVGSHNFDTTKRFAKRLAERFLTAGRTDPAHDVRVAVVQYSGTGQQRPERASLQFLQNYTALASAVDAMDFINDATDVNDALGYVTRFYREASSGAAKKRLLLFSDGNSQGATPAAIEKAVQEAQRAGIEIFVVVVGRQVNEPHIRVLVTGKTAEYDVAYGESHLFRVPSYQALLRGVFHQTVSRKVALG

Target: collagen VI α3 chain, endogenous in WI-26 VA4 COL6A1 knockout cells (human (endogenous in WI-26 VA4)) (UniProt P12111)
Assay: composite agarose/polyacrylamide gel electrophoresis with immunoblot; supernatants of WI-26 VA4 COL6A1 KO cells transfected with the wild-type or the mutant α1 chain; tetramers detected with the α3N antibody

binding: binds
Substance: recombinant wild-type full-length collagen VI α1 chain with His8 tag, expressed in WI-26 VA4 COL6A1 knockout cells (from UniProt P12109 20-1028)
